PMC10163288
The list shows a part of the results.

B1: il10ra_site1_sap_13_mot_HHH_b1_00456_000000263_0001_1_17_H_._HHH_b2_00124_0001_0000100008_0000001_0_0001_af2pred_dldesign_0_af2pred (protein)
chain: SSSSSPETEEIIRLIREALELQYEGKPEEAKEVLDKAIELAKKAGDEILLYTAEFLRKRLSSSSS
B2: il10ra_site1_sap_20_mot_HHH_b2_06602_000000226_0001_1_16_H_._HHH_b1_03811_0001_0000900013_0000001_0_0001 (protein)
chain: SSSSDEEEERFEELERLARELGNYILEHVLKFMLEIFEQTGDPRALRSAEESVRLIEEARSSSSS
B3: il10ra_site1_sap_22_mot_HHH_b1_02809_af2_000000277_0001_40_57_H_._HHH_b2_00372_af2_0001_0000300014_0000002_0_0001_af2pred_dldesign_0_af2pred (protein)
chain: SPLDELIALLAEVMGVPPEEVRRRLAELTAVTGDPREALRALVARAILRDPSHKEELESLLAKVE
B4: il10ra_site1_normal_mot_HHH_b1_02881_000000027_0001_1_20_H_._HHH_b1_06219_0001_0000400018_0000001_1_af2pred_dldesign_0_af2pred (protein)
chain: SSSSSSLVEEAKRLYEEGQALLAAGDLERLAEVIEELRKKYEETKHLAYESALRALERALSSSSS
B5: il10ra_site1_normal_mot_HHH_b1_06914_000000280_0001_1_18_H_._0e0d001460a8a8fa579fa20b8409dbd9_0001_1_0001_0000100003_0000001_0_af2pred_dldesign_0_af2pred (protein)
chain: SLLDRALELLLRDPDPAVRAEAERLRELLAAGSVPEEELLVRAIRLLAEAGRPEEAARLAREFLK
B6: il10ra_site1_normal_mot_8756ee2cf497b5429c717dfc0c0bcfd6_0001_000000186_0001_1_13_H_._HHH_b2_03896_0001_0000200012_0000001_0_af2pred_0001 (protein)
chain: SSSSSELAERIRELLRLVSELDLNGNPEEAEEVLEEARELAERAGNLVLEAQIRFLEEILNSSSS
B7: il10ra_site1_normal_mot_HHH_b2_02337_000000026_0001_38_52_H_._HHH_b1_03083_0001_0000200009_0000002_0 (protein)
chain: SSSSDVEEEVEELLEEIERLIEEGDFERAARLLAEATHVALRGQNQELLQRVWRLVQELYSSSSS
B8: il10ra_site1_sap_10_mot_HHH_b1_06914_000000280_0001_1_18_H_._HHH_b2_00948_0001_0000200009_0000001_0_0001 (protein)
chain: SSSSDRREIYELSRRAVELDSDGNPEEAEEVLREAIRLAEEAGDMVLLAVLEYLLRLLEENSSSS
B9: il10ra_site1_sap_8_mot_HHH_b1_02062_000000185_0001_1_20_H_._HHH_b1_08343_0001_0000200014_0000001_0_0001 (protein)
chain: SSSSDDYEFVEKAIEEAIKLYREGNPEEAQRLLREAEEYLEEKNNWAALFSIRHLLRVVENSSSS
B10: il10ra_site1_sap_19_mot_39a7b8d0c4c3fc04bafbda6ce6101d3a_0001_1_af2_000000014_0001_34_48_H_._HHH_b2_05756_0001_0000400014_0000001_1_0001 (protein)
chain: SSSSSEVEALAEAWKRALKELLEEGDPDQARVVAWLARWSLEEKGNPELAEEIEELYEELSSSSS
B11: il10ra_site1_sap_19_mot_HHH_b1_05357_000000034_0001_23_39_H_._HHH_b2_00301_0001_0000300008_0000001_0_0001 (protein)
chain: SSSSSSSWERSVELSIEAARRVEDPHLARAALRLAAEAARHSGNEELLEEAERLLEELRSSSSSS
B12: il10ra_site1_normal_mot_HHH_b2_00984_000000042_0001_1_20_H_._HHH_b2_07840_0001_0000100009_0000001_0 (protein)
chain: SSSSSSDLEELTEELEEAVREGDSEKASQIAQEAVRLAHRLRDQEALQELWELIQLVASSSSSSS
B13: il10ra_site1_sap_16_mot_HHH_b1_02690_000000078_0001_1_19_H_._HHH_b1_06328_0001_0000100001_0000003_0_0001 (protein)
chain: SSSSQEAYELLRRAIEELIELARKNDEEELERLVEEVAKELEKLGDTISVFVLRNALEILKSSSS
B14: il10ra_site1_sap_27_mot_HHH_b2_03565_000000130_0001_23_39_H_._HHH_b2_02910_0001_0000100007_0000001_0_0001 (protein)
chain: SSSSDEASQRIYRLLEEVARLDHEGDEEEARELLEEARELAEEANNRNLLMQIEFLEKLLNSSSS
B15: il10ra_site1_normal_mot_HHH_b2_05323_000000159_0001_1_18_H_._HHH_b2_06508_0001_0000600022_0000001_0 (protein)
chain: SSSSSALELVLEVFRLALRGNPEEALELLEEALELAREAGNERLVRVIEELAQALEAELGSSSSS
B16: il10ra_site1_sap_14_mot_HHH_b2_03220_af2_000000223_0001_23_40_H_._HHH_b2_04050_af2_0001_0000100005_0000002_0_0001 (protein)
chain: SSSSNEANQEALELSQKAFHLALRGNPEEAREVLEEAAELAREANNERLLKQIESLLKAQKSSSS
B17: il10ra_site1_normal_mot_HHH_b1_07094_000000116_0001_18_34_H_._HHH_b1_08730_0001_0000100011_0000002_0_af2pred_0001 (protein)
chain: SSSSSEDEEEIEELLEEAKRIEDEKELFEVLMEAYRIAVRNNNPEIVRLVSQVLAELSKRSSSSS
B18: il10ra_site1_normal_mot_HHH_b1_05357_000000034_0001_23_39_H_._HHH_b2_00663_0001_0000700041_0000001_0_af2pred_0001 (protein)
chain: SSSSSSDEEEVERLLEEAKHVPDPHRRAYLLIRAFAVAYKSNDPELRELVKEVAQKLLQSSSSSS
B19: il10ra_site1_normal_mot_HHH_b2_03183_af2_000000055_0001_40_56_H_._HHH_b1_06261_af2_0001_0000200010_0000001_0 (protein)
chain: SSSSSQEEELARAVARLIRQALEFGDKRAVRFLLEALEILAEELNDEELKEFIEEVEELISSSSS
B20: il10ra_site1_normal_mot_0eddeacbb14b769e73e254714f31e2f9_0001_af2_000000203_0001_37_51_H_._HHH_b1_03453_0001_0000100005_0000001_0_af2pred_0001 (protein)
chain: SSSSSSDDEVIRLAAEIALLLRRGNEEEAEKLLEEARELAKELNNPELERLLEILVRLTSSSSSS
B21: il10ra_site1_sap_22_mot_HHH_b2_07145_000000158_0001_24_40_H_._HHH_b2_07052_0001_0000300025_0000001_0_0001 (protein)
chain: SSSSTEAAQLAIELMREAAEAHRRGDPEEARELLEEAERILEEGNNRVVLHNVRYLLKKVTSSSS
B22: il10ra_site1_sap_13_mot_HHH_b2_03827_000000021_0001_1_19_H_._HHH_b2_08297_af2_0001_0001200013_0000001_0_0001 (protein)
chain: SSSSSDREEVEELLEEAEERRKEGDRERVAELLLRALRIAYENKNEEALRLIWEVVRRLASSSSS
B23: il10ra_site1_normal_mot_a6c796b944619e241e020fd597ddb6da_0001_af2_000000092_0001_15_31_H_._HHH_b1_07083_0001_0000300023_0000001_0_af2pred_0001 (protein)
chain: SSSSSSTEEVRARALVIAAKQASNPDAARITLEVALEIARKLNDEELVEEIEELLEEYSSSSSSS
B24: il10ra_site1_sap_11_mot_HHH_b1_02881_000000046_0001_1_20_H_._HHH_b2_01251_0001_0000200007_0000002_0_0001 (protein)
chain: SSSSSSDELVQLTTELVELYREGDEEEVEKVAEELRRLAEELNNPMAAWIAEMMLRVLSSSSSSS

molecular target: il10ra, Q13651; test: yeast display titration

Apparent Kd, inactive:
B1 no binding seen
B2 no binding seen
B3 no binding seen
B4 no binding seen
B5 no binding seen
B6 no binding seen
B7 no binding seen
B8 no binding seen
B9 no binding seen
B10 no binding seen
B11 no binding seen
B12 no binding seen
B13 no binding seen
B14 no binding seen
B15 no binding seen
B16 no binding seen
B17 no binding seen
B18 no binding seen
B19 no binding seen
B20 no binding seen
B21 no binding seen
B22 no binding seen
B23 no binding seen
B24 no binding seen

Not a retest: an excerpt of the list.
Apparent Kd, inactive:
B4 no binding seen
B5 no binding seen
